Measured values published in PubChem BioAssay AID1259354 (Paczesny and Yang Labs, IUPUI and University of Michigan, 2018).
Values joined by “and” are separate entries in the source; they are usually repeats but may differ in a detail not shown here. Equal entries are not always repeated. About 1,800 (2.3%) of roughly 78,000 compounds were called active. This list was built around the results that the source calls inconclusive (neither active nor inactive); the mix of calls is not that of the screen. Rule as the data show it: active = inhibition above about 30%; inconclusive = mostly about 10% to 28%; inactive = weaker than that.

Protein sequences, listed by entry. Tags and fused reporters are not part of them. Lines headed by an entry give the natural chain unless they say otherwise; changes in a name come on top.
UniProt Q01638: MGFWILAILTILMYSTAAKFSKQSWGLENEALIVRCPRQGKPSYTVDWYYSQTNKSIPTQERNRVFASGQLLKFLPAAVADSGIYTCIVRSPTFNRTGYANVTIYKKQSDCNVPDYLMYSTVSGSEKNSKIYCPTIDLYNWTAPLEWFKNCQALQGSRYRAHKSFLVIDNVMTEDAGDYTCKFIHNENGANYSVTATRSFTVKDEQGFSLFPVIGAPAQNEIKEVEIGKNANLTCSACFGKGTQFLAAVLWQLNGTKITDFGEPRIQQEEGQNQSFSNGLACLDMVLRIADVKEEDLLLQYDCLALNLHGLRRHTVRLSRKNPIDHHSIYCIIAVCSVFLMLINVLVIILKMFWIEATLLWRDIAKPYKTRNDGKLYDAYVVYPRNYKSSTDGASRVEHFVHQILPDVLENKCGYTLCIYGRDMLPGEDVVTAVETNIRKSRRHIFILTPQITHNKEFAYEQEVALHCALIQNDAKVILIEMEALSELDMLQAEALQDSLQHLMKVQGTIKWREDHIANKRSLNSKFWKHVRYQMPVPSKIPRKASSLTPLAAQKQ

target: Interleukin-1 receptor-like 1 (Homo sapiens) (UniProt Q01638); assay: blocks human ST2 binding to IL-33, primary screen, biochemical, AlphaLISA (AID 1259354); settings: AlphaLISA ST2-Fc/biotin-IL-33 interaction, 1 h; at 17 µM, stronger effect = higher value

Structure (SMILES) | inhibition
O=C(CN1CCCN(Cc2ccccc2Cl)S1(=O)=O)Nc1ccc2c(c1)OCO2 | inactive
O=Cc1ccc(S(=O)(=O)c2ccc(Cl)cc2)cc1 | inactive
CCCn1cnc2cc(NCc3cccc(Br)c3)ccc21 | inconclusive: 14%
CCC1CCCCN1C(=O)CSc1nc2c(c(=O)n1-c1ccccc1)SCC2 (configuration not stated) | inconclusive: 25% and inconclusive: 16%
CNC(=O)CN(c1ccc(OC)cc1)S(=O)(=O)c1ccc(C)cc1 | inactive
COc1cc(NC(=O)c2ccc(C)c(Cl)c2)c(OC)cc1Cl | inactive
COc1ccc(Nc2cc(C)nc(Nc3ccc(NC(=O)CC4CCCC4)cc3)n2)cc1 | active: 30%
Cn1c(=O)[nH]c(=O)c2c1nc(CN1CCN(Cc3ccccc3)CC1)n2CCc1ccccc1 | inactive
Cc1[nH]nc2c1C(c1cc(O)c(Br)c(O)c1)C(C#N)=C(N)O2 (configuration not stated) | inconclusive: 12%
O=C(CSc1n[nH]c(=O)[nH]c1=O)c1ccccc1 | inconclusive: 15%
Cc1ccc(CN2CCCN(CC(=O)Nc3ccccc3)S2(=O)=O)cc1 | inconclusive: 10%
O=C(NCC1CCCN(Cc2ccc(-c3ccco3)cc2)C1)c1cccnc1 (configuration not stated) | inconclusive: 21%
Cc1cc(N2C(=O)CSC2c2cccnc2)ccc1Br (configuration not stated) | inactive
O=C(O)c1cc(-c2ccccc2F)cc(S(=O)(=O)NCc2ccccn2)c1 | inconclusive: 13%
O=C1c2ccccc2-c2c1cccc2C(=O)N1CCCCC1 | inconclusive: 26%
COc1ccccc1/C=C/CN1CCC(n2nccc2NC(=O)c2ccccc2Cl)CC1 | inconclusive: 12%
CC(C)Nc1cc(-c2cccc3cccnc23)ncn1 | inconclusive: 10%
Cc1ccc(C(=O)Nc2ccc(Nc3ccccc3)cc2)c(Cl)c1 | inconclusive: 19%
COCc1nc(N(C)CCc2scnc2C)c2cnn(C)c2n1 | inactive
O=[N+]([O-])c1ccc(S(=O)(=O)Nc2cc(Cl)ccc2O)cc1 | inconclusive: 13%
CCC(NC1CCN(c2ccc3c(c2)OCO3)CC1)c1ccnn1C (configuration not stated) | inactive

At a glance, part of the list above.
Structure (SMILES) | inhibition
Cc1ccc(C(=O)Nc2ccc(Nc3ccccc3)cc2)c(Cl)c1 | inconclusive: 19%
COCc1nc(N(C)CCc2scnc2C)c2cnn(C)c2n1 | inactive
O=[N+]([O-])c1ccc(S(=O)(=O)Nc2cc(Cl)ccc2O)cc1 | inconclusive: 13%
CCC(NC1CCN(c2ccc3c(c2)OCO3)CC1)c1ccnn1C (configuration not stated) | inactive

3 compounds from above, ordered by molecular weight, rising:
Structure (SMILES) | inhibition
COCc1nc(N(C)CCc2scnc2C)c2cnn(C)c2n1 | inactive
O=C(NCC1CCCN(Cc2ccc(-c3ccco3)cc2)C1)c1cccnc1 (configuration not stated) | inconclusive: 21%
CCC1CCCCN1C(=O)CSc1nc2c(c(=O)n1-c1ccccc1)SCC2 (configuration not stated) | inconclusive: 25% and inconclusive: 16%

Further results.

Structure (SMILES) | inhibition
O=C1C(=O)N(CNc2ccccc2Cl)c2ccccc21 | inconclusive: 16%
Cc1ccc(C(=O)CSC2=C(C#N)C(c3ccco3)CC(=O)N2)c(C)c1 (configuration not stated) | inconclusive: 22%
Cn1c(=O)c2c(SCc3cccnc3)nc(-c3cccs3)nc2n(C)c1=O | inactive
CC(=O)N1CCC(N2C[C@H](O)C[C@H]2c2nc(CS(=O)(=O)c3ccc(F)cc3)no2)CC1 | inactive
CC1CN(CC(=O)N2CCC(c3ccncc3)CC2)Cc2cc(Cl)ccc2O1 (configuration not stated) | inconclusive: 11%
COCCCn1c(=N)c(C(=O)NC2CCCC2)cc2c(=O)n3cccc(C)c3nc21 | inactive
CCC(=O)Nc1cccc(C(=O)NCCn2nc(C)c(CC)c2C)c1 | inactive
COc1cc(S(=O)(=O)NCC23CC4CC(CC(C4)C2)C3)ccc1Cl | inactive
Cc1ccc(C2C(C#N)=C(N)Oc3c2ccc2cccnc32)cc1 (configuration not stated) | inactive
OCc1ccc(-c2nccn2Cc2cn3c(n2)SCC3)o1 | inactive
CCC(C)NS(=O)(=O)c1cccc2cccnc12 (configuration not stated) | inactive
CCc1ccc(N2CC(O)Cn3c2nc2c3c(=O)n(C)c(=O)n2C)cc1 (configuration not stated) | inactive
Cc1cc(-c2ccnc(-n3ncc(C(=O)N(C)Cc4csc(C)n4)c3C)n2)c(C)s1 | inconclusive: 14%
Cc1ccc(C2=NN(C(=O)CCC(=O)O)C(c3ccc(Cl)cc3)C2)cc1 (configuration not stated) | inactive
O=C(NCC1CCN(Cc2ccccc2OC(F)F)C1)C1CCC1 (configuration not stated) | inconclusive: 10%
COc1ccc(C2CC(c3ccc(OC)cc3)n3nc(N)nc3N2)cc1 (configuration not stated) | inconclusive: 22%
O=C1Nc2ccccc2C(O)(C(=O)NC2CCCCCCC2)N1c1ccc(Cl)cc1 (configuration not stated) | inactive
CC(C)NC(=O)c1ccccc1NC(=O)CN(c1cccc([N+](=O)[O-])c1)S(C)(=O)=O | inconclusive: 12%
COCc1cc(CN(C)c2nc(-c3cccnc3)nc3c2cnn3C)[nH]n1 | inconclusive: 13%
COc1cc(OC)cc(C(=O)Nc2ccc([N+](=O)[O-])cc2Cl)c1 | inconclusive: 17%
COCC(=O)N1CCC(Oc2ccccc2C(=O)N2CCN(c3ccccc3)CC2)CC1 | inconclusive: 13%

Structure (SMILES) | inhibition
Cc1ccsc1[C@@H]1CCN(Cc2cccnc2N)C[C@H]1O | inactive
Cc1ccc(N2CCn3c2nc2c3c(=O)n(CC(C)C)c(=O)n2C)cc1 | inconclusive: 19%
CS(=O)(=O)N1CCOC(CNc2nccc(CCC(F)(F)F)n2)C1 (configuration not stated) | inactive
COC(=O)c1c(C)[nH]c(C(=O)CSc2nnc3cc(C)c4ccccc4n23)c1C | inconclusive: 17%
COC(=O)c1cc(Nc2ncnc3c2cnn3-c2ccc(C)cc2C)cc(C(=O)OC)c1 | inactive
CCC(=O)N1CCc2cc(Br)cc(S(=O)(=O)N3CCN(CC)CC3)c21 | inactive
CCCc1cc(CN(C)C(=O)CC2(c3ccccc3F)CC(=O)N(CCOC)C2=O)[nH]n1 (configuration not stated) | inconclusive: 13%
CCOc1ccc2c(=O)c(-c3ccccc3Cl)coc2c1 | inactive
Cc1ccc(CCNC(=O)CCc2nc3sc4c(c3c(=O)[nH]2)CCCC4)cc1 | inactive
O=C(Nc1ncc(S(=O)(=O)c2ccc([N+](=O)[O-])cc2)s1)c1ccccc1Br | inactive
Cc1occc1C(=O)Nc1ccc(CC(=O)O)cc1 | inactive
COC(=O)[C@@H]1C[C@H](NS(=O)(=O)c2ccc(-n3cccn3)cc2)CN1C | inconclusive: 16%
CCc1ccccc1NC(=O)c1ccccc1Br | inconclusive: 11%
O=C(O)c1ccc(C2CCN(C(=O)C3CCOCC3)C2)cc1 (configuration not stated) | inconclusive: 15%
CCC(CO)N(Cc1ccsc1)C(=O)c1ccc2cc[nH]c2c1 (configuration not stated) | inactive
COCCN1C(=O)N(Cc2cccnc2)C(=O)C12CCN(Cc1cc3ccccc3s1)CC2 | inconclusive: 16%
CCOc1ccc(C(=O)Nc2ccc(Nc3nc(C)cc(N(C)C)n3)cc2)cc1OCC | inconclusive: 23%
COc1cc(F)ccc1-c1c(-c2ccccc2)ncn1CCCO | inconclusive: 14%
CC1CCN(C(=O)c2ccc(Cl)c(Cl)c2)CC1 | inconclusive: 18%
O=C(c1ccc2c(c1)ncn2C1CCCCC1)N1CCOCC1 | inactive
